The values below come from the supplement of paper PMC8728848.

The other results are listed elsewhere or left out.

Assay in all cases: glycan array binding signal (z-score within array); higher = stronger binding
What all share (conditions): glycan notation: IUPAC condensed, linker removed

Test [1] concerns the target GlcNAc(b1-2)[GlcNAc(b1-4)]Man(a1-3)[GlcNAc(b1-4)][GlcNAc(b1-2)Man(a1-6)]Man(b1-4)GlcNAc(b1-4)GlcNAc. An outline of the steps: (§1)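 The Consortium for Functional Glycomics database supplied 3228 glycan arrays, of which those lacking an available protein sequence were dropped. The binding signal, a within-array Z-score, was averaged across arrays of the same protein sequence and across linkers. Negative scores can be read as non-binding.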

Test [2] deals with GlcNAc(b1-2)[GlcNAc(b1-4)]Man(a1-3)[GlcNAc(b1-4)][GlcNAc(b1-2)[GlcNAc(b1-6)]Man(a1-6)]Man(b1-4)GlcNAc(b1-4)GlcNAc. An outline of the steps: as §1
The target in test [3] is GlcNAc(b1-2)[GlcNAc(b1-4)]Man(a1-3)[GlcNAc(b1-4)][GlcNAc(b1-2)[GlcNAc(b1-6)]Man(a1-6)]Man(b1-4)GlcNAc(b1-4)[Fuc(a1-6)]GlcNAc. The gist of the method:
as §1

Test [4] addresses GlcNAc(b1-2)[GlcNAc(b1-6)]Man(a1-6)[GlcNAc(b1-2)Man(a1-3)]Man(b1-4)GlcNAc(b1-4)GlcNAc. An outline of the steps:
as §1

Test [5] addresses GlcNAc(b1-2)[GlcNAc(b1-6)]Man(a1-6)[GlcNAc(b1-2)Man(a1-3)]Man(b1-4)GlcNAc(b1-4)[Fuc(a1-6)]GlcNAc. The gist of the method:
as §1

Test [6] addresses GlcNAc(b1-2)[GlcNAc(b1-6)]Man(a1-6)[GlcNAc(b1-4)][GlcNAc(b1-2)Man(a1-3)]Man(b1-4)GlcNAc(b1-4)GlcNAc. An outline of the steps:
as §1

The target of a further test is GlcNAc(b1-3)Fuc. The gist of the method:
as §1

In a further test the target is GlcNAc(b1-3)Gal. The gist of the method:
as §1

In test [7] the target is GlcNAc(b1-3)Gal(b1-3)GalNAc. The gist of the method:
as §1

Another test addresses GlcNAc(b1-3)Gal(b1-4)Glc. An outline of the steps: as §1
The target in test [8] is GlcNAc(b1-3)Gal(b1-4)GlcNAc. The gist of the method:
as §1

Test [9] deals with GlcNAc(b1-3)Gal(b1-4)GlcNAc(b1-2)Man(a1-3)[GlcNAc(b1-3)Gal(b1-4)GlcNAc(b1-2)Man(a1-6)]Man(b1-4)GlcNAc(b1-4)GlcNAc. The gist of the method: as §1
The target of test [10] is GlcNAc(b1-3)Gal(b1-4)GlcNAc(b1-2)Man(a1-3)[GlcNAc(b1-3)Gal(b1-4)GlcNAc(b1-2)Man(a1-6)]Man(b1-4)GlcNAc(b1-4)[Fuc(a1-6)]GlcNAc. An outline of the steps:
as §1

Test [11] has as its target GlcNAc(b1-3)Gal(b1-4)GlcNAc(b1-2)[GlcNAc(b1-3)Gal(b1-4)GlcNAc(b1-6)]Man(a1-6)[GlcNAc(b1-3)Gal(b1-4)GlcNAc(b1-2)Man(a1-3)]Man(b1-4)GlcNAc(b1-4)GlcNAc. An outline of the steps: as §1
For test [12], the target named is GlcNAc(b1-3)Gal(b1-4)GlcNAc(b1-3)Gal(b1-4)GlcNAc. An outline of the steps:
as §1

In test [13] the target is GlcNAc(b1-3)Gal(b1-4)GlcNAc(b1-3)Gal(b1-4)GlcNAc(b1-2)Man(a1-3)[GlcNAc(b1-3)Gal(b1-4)GlcNAc(b1-3)Gal(b1-4)GlcNAc(b1-2)Man(a1-6)]Man(b1-4)GlcNAc(b1-4)GlcNAc. An outline of the steps:
as §1

Test [14] concerns the target GlcNAc(b1-3)Gal(b1-4)GlcNAc(b1-3)Gal(b1-4)GlcNAc(b1-2)Man(a1-3)[GlcNAc(b1-3)Gal(b1-4)GlcNAc(b1-3)Gal(b1-4)GlcNAc(b1-2)Man(a1-6)]Man(b1-4)GlcNAc(b1-4)[Fuc(a1-6)]GlcNAc. An outline of the steps:
as §1

Test [15] deals with GlcNAc(b1-3)Gal(b1-4)GlcNAc(b1-3)Gal(b1-4)GlcNAc(b1-2)[GlcNAc(b1-3)Gal(b1-4)GlcNAc(b1-3)Gal(b1-4)GlcNAc(b1-6)]Man(a1-6)[GlcNAc(b1-3)Gal(b1-4)GlcNAc(b1-3)Gal(b1-4)GlcNAc(b1-2)Man(a1-3)]Man(b1-4)GlcNAc(b1-4)[Fuc(a1-6)]GlcNAc. An outline of the steps: as §1
Test [16] concerns the target GlcNAc(b1-3)Gal(b1-4)GlcNAc(b1-3)Gal(b1-4)GlcNAc(b1-3)Gal(b1-4)GlcNAc(b1-2)Man(a1-3)[GlcNAc(b1-3)Gal(b1-4)GlcNAc(b1-3)Gal(b1-4)GlcNAc(b1-3)Gal(b1-4)GlcNAc(b1-2)Man(a1-6)]Man(b1-4)GlcNAc(b1-4)GlcNAc. The gist of the method:
as §1

Test [17] addresses GlcNAc(b1-3)Gal(b1-4)GlcNAc(b1-3)Gal(b1-4)GlcNAc(b1-3)Gal(b1-4)GlcNAc(b1-2)Man(a1-3)[GlcNAc(b1-3)Gal(b1-4)GlcNAc(b1-3)Gal(b1-4)GlcNAc(b1-3)Gal(b1-4)GlcNAc(b1-2)Man(a1-6)]Man(b1-4)GlcNAc(b1-4)[Fuc(a1-6)]GlcNAc. The gist of the method:
as §1

Test [18] addresses GlcNAc(b1-3)Gal(b1-4)GlcNAc(b1-3)Gal(b1-4)GlcNAc(b1-3)Gal(b1-4)GlcNAc(b1-2)[GlcNAc(b1-3)Gal(b1-4)GlcNAc(b1-3)Gal(b1-4)GlcNAc(b1-3)Gal(b1-4)GlcNAc(b1-6)]Man(a1-6)[GlcNAc(b1-3)Gal(b1-4)GlcNAc(b1-3)Gal(b1-4)GlcNAc(b1-3)Gal(b1-4)GlcNAc(b1-2)Man(a1-3)]Man(b1-4)GlcNAc(b1-4)[Fuc(a1-6)]GlcNAc. An outline of the steps:
as §1

Test [19] concerns the target GlcNAc(b1-3)Gal(b1-4)GlcNAc(b1-3)Gal(b1-4)GlcNAc(b1-3)Gal(b1-4)GlcNAc(b1-3)Gal(b1-4)GlcNAc(b1-2)Man(a1-3)[GlcNAc(b1-3)Gal(b1-4)GlcNAc(b1-3)Gal(b1-4)GlcNAc(b1-3)Gal(b1-4)GlcNAc(b1-3)Gal(b1-4)GlcNAc(b1-2)Man(a1-6)]Man(b1-4)GlcNAc(b1-4)GlcNAc. The gist of the method:
as §1

In test [20] the target is GlcNAc(b1-3)Gal(b1-4)GlcNAc(b1-3)Gal(b1-4)GlcNAc(b1-3)Gal(b1-4)GlcNAc(b1-3)Gal(b1-4)GlcNAc(b1-2)Man(a1-3)[GlcNAc(b1-3)Gal(b1-4)GlcNAc(b1-3)Gal(b1-4)GlcNAc(b1-3)Gal(b1-4)GlcNAc(b1-3)Gal(b1-4)GlcNAc(b1-2)Man(a1-6)]Man(b1-4)GlcNAc(b1-4)[Fuc(a1-6)]GlcNAc. The gist of the method: as §1

B1: Drgal1 (Danio rerio) (protein)
chain: MAGVLIQNMSFKVGQTLTITGVPKPDSTNFAINIGHSPEDIALHMNPRFDAHGDQCTIVCNSFQSGSWCEEHRDDNFPFIQDKEFQIKITFTNEEFLVTLPDGSEIHFPNRQGSEKYKYMYFEGEVRIQGVEIK
For B1, the “glycan array binding signal (z-score)” value in test [1] was -0.481; in test [2], -0.413; in test [3], -0.012; in test [4], -0.116; in [5], -0.01; in [6], -0.466. Moreover, the “glycan array binding signal (z-score)” value was 0.024 in the test with GlcNAc(b1-3)Fuc; -0.625 with GlcNAc(b1-3)Gal; -0.481 in [7]; -0.108 in the test with GlcNAc(b1-3)Gal(b1-4)Glc; -0.358 in [8]; 0.058 in [9]. The “glycan array binding signal (z-score)” value in test [10] stood at 0.125; in test [11] it was 0.447; in test [12] it was 0.43; in test [13], 0.923; in test [14], 0.195; in test [15] it was 0.737. In addition, the “glycan array binding signal (z-score)” value in [16] was found to be 0.918; in [17], 1.67; in test [18] it was 0.847; in test [19] it was 0.678; in [20], 1.4.
